Screen size: about 310,000 compounds; about 17,000 (5.5%) were called active. This list was built around the results that the source calls inconclusive (neither active nor inactive); the mix of calls is not that of the screen. Calls follow the shape of the dose curve; as a rule, active = well fitted inhibition curve with a large enough effect; inconclusive = small, poorly fitted or top-dose-only effect, or effect the other way; inactive = no such curve, though single readings can be large or run the other way. Where the call is inconclusive, the potency comes from a doubtful curve fit.
molecular target: Nuclear receptor ROR-gamma (Mus musculus) (UniProt P51450); assay: qHTS for inhibitors of ROR gamma transcriptional activity; conditions: Drosophila S2 Gal4-RORgamma UAS-luciferase reporter, 20 h; activity change, negative = inhibition: at 53.6 µM (top of the series); also: nearly all actives have a fitted effect of over 60% in size
In short: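 In this cell-based reporter format, copper sulfate (700 uM final) drives Gal4–ROR gamma fusion expression from a metallothionein promoter in Drosophila Schneider cells; compounds preincubated 1 hr, reporter read after 20 hr at ambient temperature.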
% is scaled to controls: 0 for no effect and ±100 for the full control effect; potency is read from the fitted curve at half-maximal effect.

Protein sequences, listed by entry. Tags and fused reporters are not part of them. Lines headed by an entry give the natural chain unless they say otherwise; changes in a name come on top.
UniProt P51450: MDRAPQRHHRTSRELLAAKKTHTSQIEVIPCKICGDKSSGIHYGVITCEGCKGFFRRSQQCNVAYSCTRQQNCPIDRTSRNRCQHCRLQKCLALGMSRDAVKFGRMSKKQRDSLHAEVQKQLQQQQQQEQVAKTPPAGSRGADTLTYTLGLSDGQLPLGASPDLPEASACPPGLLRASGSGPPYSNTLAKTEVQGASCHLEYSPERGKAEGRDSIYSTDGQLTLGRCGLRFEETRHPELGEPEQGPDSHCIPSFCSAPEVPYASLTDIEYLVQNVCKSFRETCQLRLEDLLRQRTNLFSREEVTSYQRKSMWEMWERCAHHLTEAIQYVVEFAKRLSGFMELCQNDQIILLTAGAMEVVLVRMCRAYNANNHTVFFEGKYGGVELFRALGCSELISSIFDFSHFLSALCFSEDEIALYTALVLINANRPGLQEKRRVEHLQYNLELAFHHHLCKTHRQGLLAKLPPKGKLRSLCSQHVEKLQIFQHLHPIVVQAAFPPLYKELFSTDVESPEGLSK

Potency, active:
Cc1ccc(C)c(/C=N/Nc2ccccn2)c1 10 µM
CCNC(=S)N=Nc1c(O)[nH]c2ccc(C(C)C)cc12 2.82 µM
O=c1c2ccccc2nc(N/N=C/c2ccc(O)cc2)n1O 11.2 µM
COc1ccc(-c2nc(=S)c3ccc4ccccc4c3[nH]2)cc1 5.62 µM
Cc1ccc2nc(NC(=O)c3ccccc3F)sc2c1 1.26 µM
CCOc1cc(Br)cc(/C=N/NC(=O)c2cccnc2)c1O 0.794 µM
CC1=C(C)CS(=O)N(S(=O)(=O)c2ccccc2)C1 (centres undefined) 8.91 µM
CCCCn1nc(C(=O)Nc2nc3c(s2)CCCC3)c2ccccc2c1=O 11.2 µM
S=C(N/N=C/c1ccccc1Cl)Nc1cccc(Cl)c1Cl 0.398 µM
S=C(NCC1CCCO1)Nc1ccc(Cl)cc1Cl (centres undefined) 15.8 µM
O=C(NNC(=S)Nc1ccccc1Cl)c1ccccc1Br 7.94 µM
c1ccc(-c2ccc(-c3cnc4n3CCCCC4)cc2)cc1 6.31 µM

Potency, inactive:
Cc1occc(=O)c1O

Potency, inconclusive:
COc1ccccc1-c1cc(C(=O)Nc2cc(C)nn2-c2ccccc2)no1 35.5 µM [inhibitor, single point]
CCOC(=O)C1=C(c2ccccc2)OC(N)=C(C#N)C1c1ccncc1 (centres undefined) 35.5 µM [inhibitor, single point]
COc1cc(N(C)C)c([N+](=O)[O-])cc1C(=O)N1CCN(Cc2ccccc2)CC1 15.8 µM [activator, single point]
CCN(CC)CCCNC(=S)N1CCN(c2nc(-c3ccc(F)cc3)cs2)CC1 0.282 µM [activator, single point]
C/C(=N\Nc1ncc(Cl)cc1Cl)c1ccc(S(=O)(=O)NCc2ccco2)cc1 31.6 µM [inhibitor, single point]
N#Cc1cccc(N=Cc2c(O)ccc3ccccc23)c1 15.8 µM [inhibitor, single point]
COc1ccc(NC(=O)CN2CCc3ccccc3C2)c(OC)c1 11.2 µM [activator, single point]
Cc1ccc(-n2c(=O)c3ccc(C(=O)NCc4ccco4)cc3n(Cc3ccccc3C#N)c2=O)cc1 2 µM [activator, partial curve, poor fit]
COc1ccc(NC(=O)CN2C(=O)C(c3ccccc3)=NC23CCCCCC3)cc1 17.8 µM [activator, single point]
COc1ccc(/C=C2\CCn3c2nc2ccccc2c3=O)cc1OC 1.41 µM [activator, full curve]
CCOC(=O)CNC(=O)c1sc2ncnc(N3CCc4ccccc4C3)c2c1C 35.5 µM [inhibitor, single point]
CCN1CCN(CCCNC(=O)c2ccc(/C=C3/Sc4ccccc4N(Cc4ccccc4F)C3=O)cc2)CC1 22.4 µM [inhibitor, single point]
Cc1cc(C(=O)Nn2c(C3CCCCC3)nc3ccccc3c2=O)ccc1[N+](=O)[O-] 15.8 µM [activator, single point]
CSc1nc(Sc2ccccc2Cl)c2ccccc2n1 14.1 µM [inhibitor, partial curve]
CC(=O)Nc1ccc(N(CC(O)Cn2c3ccccc3c3ccccc32)S(=O)(=O)c2ccc(C)cc2)cc1 (centres undefined) 35.5 µM [activator, single point]
COc1ccc(C2C(C(=O)OCC3CCCO3)=C(C)NC3=C2C(=O)CC(c2ccco2)C3)cc1O (centres undefined) 4.47 µM [activator, full curve, poor fit]
Cc1cc(Oc2cnn(C(C)(C)C)c(=O)c2Cl)cc(C(C)C)c1 12.6 µM [activator, partial curve]
COc1cc(/C=N/NC(=O)c2ccccn2)ccc1OC(=O)c1ccccc1Br 35.5 µM [inhibitor, single point]
c1cc2c(cc1Oc1nc(N3CCOCC3)nc(N3CCOCC3)n1)OCO2 35.5 µM [activator, single point]
Cc1cc(/C(N)=N/OC(=O)Nc2cccc(C(F)(F)F)c2)no1 7.08 µM [activator, partial curve]
Cn1nnnc1SCC(=O)c1cccs1 35.5 µM [inhibitor, single point]
COc1ccc(C(=O)N2CCC(C(=O)Nc3cccc(C)c3)CC2)cc1OC 35.5 µM [inhibitor, single point]
Cc1ccc(SCC2=NN(c3nc(C)cc(C)n3)C(=O)C2)cc1 15.8 µM [inhibitor, single point]
COc1ccc(-n2c(C)cc(C(=O)CSc3ccc(NC(C)=O)cc3)c2C)cc1 17.8 µM [activator, partial curve]

3 compounds already listed, arranged by molar mass, high to low.
Potency, inconclusive:
Cc1ccc(-n2c(=O)c3ccc(C(=O)NCc4ccco4)cc3n(Cc3ccccc3C#N)c2=O)cc1 2 µM [activator, partial curve, poor fit]
COc1cc(/C=N/NC(=O)c2ccccn2)ccc1OC(=O)c1ccccc1Br 35.5 µM [inhibitor, single point]
CCN(CC)CCCNC(=S)N1CCN(c2nc(-c3ccc(F)cc3)cs2)CC1 0.282 µM [activator, single point]

Following part.

Activity change, negative = inhibition, inactive:
O=c1c(Cl)c(NCCO)ncn1-c1ccccc1 -32.6%
O=C(NCc1ccccc1)[C@]1(C(F)(F)F)C[C@H](CCCO)CCCO1 22.2%
Cc1nc2nc(C)c(NS(=O)(=O)c3ccc(C(C)(C)C)cc3)c(=O)n2[nH]1 -9.88%
O=C(CSc1ccc(Cl)cc1)N1CCC(c2nc3ccccc3s2)CC1 17.6%
CCOc1ccccc1NC(=O)C(CC)Sc1nc2ccncc2[nH]1 (centres undefined) -23.5%
Cc1onc(C(=O)Nc2c(C)n(C)n(-c3ccccc3)c2=O)c1[N+](=O)[O-] 9.18%
Cc1ccc(NC(=O)c2ccc(=O)[nH]n2)cc1C 25.6%
COc1ccc(OC)c(CNS(=O)(=O)c2cc(-c3cc(C)no3)ccc2OC)c1 -8.85%
CCOc1ccc(OCc2ccc(C(=O)NCC3CCCO3)o2)cc1 (centres undefined) -19.2%
Cc1ccc(C)c(CNS(=O)(=O)c2c(C)[nH]c(C)c2C(=O)N2CCCCC2)c1 0.718%
Cc1cccc2sc(N(CCCN(C)C)C(=O)c3cc4ccccc4oc3=O)nc12 -27.1%
O=C1CC(c2cccc([N+](=O)[O-])c2)c2ccc3ccccc3c2N1 (centres undefined) 25.4%
